Reference: patent US4637997A (Institut National de la Sante et de la Recherche Medicale, priority 1984, dated 1987)
* marks the point of attachment. Boc = CC(C)(C)OC(=O)*; OtBu = CC(C)(C)O*

Experiment: general procedure: solution-phase peptide synthesis; isobutyl chloroformate / N-methylmorpholine (mixed anhydride)
Conditions: coupling step

Substance | step yield [%]
Boc-PIPY-OMe | 65.7
Boc-VE(OtBu)PIPY-OMe | 40.7
